The list shows a part of the results. These are further read-outs of the screen, such as a control signal, another cell line or another target. No call is given for them. Most of these compounds were active or inconclusive in the main read-out, so they are no random draw. The note in brackets gives the kind of curve behind each potency; many fits are weak.
Assay: qHTS Assay for Lipid Storage Modulators in Drosophila S3 Cells;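 on cell number change: cells counted by Cell Tracker Red CMTPX staining in the red channel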
Settings: BODIPY lipid droplet fluorescence, 18-24 h; for cell number change: measured here: cell count max response, cells fed with added oleic acid
Outline: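 Drosophila S3 cells loaded with oleic acid (400 uM, as added) and compounds at several concentrations; lipid droplets imaged by 488-nm laser-scanning cytometry, 500–530 nm intensity and object ratio to cell channel. Percent activity normalized to 20 uM Triacsin C.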

[1] = measured here: lipid fluorescence (Fed channel) AC50, cells fed with added oleic acid
[2] = measured here: cell number channel AC50, cells fed with added oleic acid

SMILES | AC50 [1] | cell number change [%] | AC50 [2]
N#Cc1c(N)n(CCNC(=O)c2ccccc2)c2nc3ccccc3nc12 | 2.06 µM [rising, partial curve] |  | 
O=C1Nc2ccc(S(=O)(=O)N3CCOCC3)c3cccc1c23 | 2.91 µM [rising, single point] | 33.7 | 32.6 µM [rising, single point]
O=C(Cn1cc(C(F)(F)F)cc(Cl)c1=O)Nc1cc(Cl)cc(Cl)c1 |  | -22.1 | 2.06 µM [falling, single point]
CN(/N=C/c1cc([N+](=O)[O-])ccc1O)c1ccccc1 | 0.411 µM [falling, full curve] | -10.4 | 
O=C(O)CN1CCN(Cc2ccccc2Cl)C1=O | 7.31 µM [falling, partial curve, poor fit] |  | 0.411 µM [falling, single point]
COc1cccc(Cn2cc(/C=N/NC(=O)c3cc(O)cc(O)c3)c3ccccc32)c1 | 0.651 µM [rising, full curve, poor fit] | -17.3 | 
CCCCC(=O)OCC(=O)c1[nH]c(C)c(C(=O)OCC)c1C |  | 35.9 | 8.2 µM [rising, partial curve, poor fit]
CC(=O)Nc1nnc(CCS(=O)(=O)c2ccc(C)c(C)c2)s1 | 1.64 µM [falling, partial curve] | 17.3 | 
CN(C)C(=O)N1CCC(C(=O)N2CCCC(C(=O)c3cccc4ccccc34)C2)CC1 (configuration not stated) |  | -13.8 | 
CC(C)c1ccc(OCC(=O)NC(Cc2c[nH]c3ccccc23)C(=O)O)cc1 (configuration not stated) | 0.058 µM [rising, full curve, poor fit] | -7.95 | 
O=C1CC[C@@H](CN(Cc2ccccc2)Cc2cn[nH]c2-c2cc3ccccc3o2)N1 | 0.0058 µM [falling, full curve, poor fit] | 4.13 | 
COC(=O)C1CCN(C(=O)CSc2nc3nc(C)cc(C)n3n2)CC1 | 3.26 µM [falling, single point] | 0.643 | 6.51 µM [falling, single point]
COC(=O)c1cc(S(=O)(=O)NCc2cccc(Br)c2)c[nH]1 | 4.61 µM [rising, full curve] |  | 
CCCNC(=O)c1ccc(N2CCC3(CC2)CC(c2cccc(Br)c2)=NO3)c(NC(=O)c2ccc(Br)cc2)c1 | 29.1 µM [rising, single point] | 20.3 | 
Cc1ccc(C(=O)NCc2ccc3c(c2)OCO3)cc1 | 29.1 µM [rising, single point] | 8.47 | 
COC(=O)c1sc(N)c(C(=O)OC)c1COC(=O)CNS(=O)(=O)c1cccc(C#N)c1 | 2.91 µM [rising, partial curve] | -100 | 29.1 µM [falling, single point]

Compounds above with bromine, in the order listed:
SMILES | AC50 [1] | cell number change [%] | AC50 [2]
COC(=O)c1cc(S(=O)(=O)NCc2cccc(Br)c2)c[nH]1 | 4.61 µM [rising, full curve] |  | 
CCCNC(=O)c1ccc(N2CCC3(CC2)CC(c2cccc(Br)c2)=NO3)c(NC(=O)c2ccc(Br)cc2)c1 | 29.1 µM [rising, single point] | 20.3 | 
